Source: paper PMC8254717, “Characterization of the DdrD protein from the extremely radioresistant bacterium Deinococcus radiodurans”

Molecular target: T1, DdrD (Deinococcus radiodurans R1 (ATCC 13939)) (UniProt Q9RXI7)
T1 sequence (looked up, limits assumed): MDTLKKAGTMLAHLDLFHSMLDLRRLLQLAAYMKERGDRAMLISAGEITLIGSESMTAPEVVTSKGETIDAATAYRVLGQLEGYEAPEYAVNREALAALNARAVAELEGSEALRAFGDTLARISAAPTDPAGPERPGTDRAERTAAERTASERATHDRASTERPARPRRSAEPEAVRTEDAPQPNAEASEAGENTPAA
Assay: EMSA
Conditions: 5 mM Mg2+, EMSA: 40 mM Tris-HCl pH 7.8, 5 mM MgCl2, 1.5 mM DTT, 50 mM NaCl, 2.5% glycerol, 3.3 nM DNA, 15 min at 4 C, 6% native PAGE in 0.25X TBE with 10% glycerol, recombinant protein, label: 5' Cy5 on strand 1

“CTGTTTAAGAAATTCACCTCGAAAGCAAGCTGATAAACCGATACAATTAAAGGCTCCTTTTGGAGCC / GCTTGCTTTCGAGGTGAATTTCTTAAACAG [oligo 4 (ds with 37-nt 3' tail)]”: no binding (only faint shifted band, attributed to DdrD-residual ssDNA).
“CTGTTTAAGAAATTCACCTCGAAAGCAAGCTGATAAACCGATACAATTAAAGGCTCCTTTTGGAGCC / GGCTCCAAAAGGAGCCTTTAATTGTATCGG [oligo 3 (ds with 37-nt 5' tail)]”: binds (major band DdrD-oligo 3, minor band DdrD-residual ssDNA).

Construct, isoform or probe ends are uncertain for at least one entry. A negative result means that nothing was seen under these conditions. Tags and fusion partners may be left off the protein sequences shown.
